# Measured values as given in publication PMC7819943, “Rice protein-binding microarrays: a tool to detect cis-acting elements near promoter regions in rice”.
# The list shows a part of the results.
# Molecular target: T1, OsSMF1 (Oryza sativa, UniProt Q6ZLB0 1-436)
# T1 sequence: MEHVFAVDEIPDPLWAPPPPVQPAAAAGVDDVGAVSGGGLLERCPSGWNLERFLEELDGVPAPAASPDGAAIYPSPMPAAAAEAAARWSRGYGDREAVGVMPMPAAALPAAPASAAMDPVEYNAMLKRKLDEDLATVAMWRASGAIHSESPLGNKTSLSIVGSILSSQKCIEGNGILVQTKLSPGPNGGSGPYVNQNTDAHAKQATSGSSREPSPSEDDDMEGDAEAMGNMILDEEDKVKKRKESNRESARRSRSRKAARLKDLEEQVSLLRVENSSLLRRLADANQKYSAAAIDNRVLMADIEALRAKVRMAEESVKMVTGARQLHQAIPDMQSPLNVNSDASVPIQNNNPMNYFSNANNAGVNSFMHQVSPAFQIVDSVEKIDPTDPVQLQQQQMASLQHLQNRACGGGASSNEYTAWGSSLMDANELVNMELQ
# Experiment: protein-binding microarray (RPBM); PBS, 2% BSA, 51.3 ng/ul salmon testes DNA, 50 uM zinc acetate, 200 nM TF, 25 C, 1 h; high values mean tight binding
# Conditions: protein: recombinant; tags: N-terminal polyhistidine and DsRed monomer fusion (pET32a); chain copies: 2; label: CyDye5-dUTP incorporated in the synthesized complementary strand; 3' TTTTT single-stranded linker to array surface; dsDNA, one strand shown
# Method in brief: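 Per-feature fluorescence intensity (arbitrary units), read on an Axon 4000B scanner, is the binding signal. Transcription factors carrying an N-terminal polyhistidine tag and DsRed fusion were expressed in E. coli BL21-CodonPlus and purified on Ni–NTA. A custom Agilent array, made double-stranded by primer extension with Cy5-dUTP and blocked with 2% BSA, was incubated with 200 nM protein in PBS, 2% BSA, salmon testes DNA and 50 µM zinc acetate at 25 °C for 1 h and then washed.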
row,Sequence,binding signal
1,AAGGTGACCTTTCACTGTTGCTTTGCTTGTGATGCGTAGTCGGAGTCACCTAGTGCAG,3360 fluorescence intensity (a.u.)
2,TGTCGGTACTTTCATACGTCATCTATGTATGAGTCGGTTTCGGAGTCACCTAGTGCAG,10600 fluorescence intensity (a.u.)
3,CCCAAATATCCACATCTAGCATATTTATTTTCTTTCCAATCGGAGTCACCTAGTGCAG,3780 fluorescence intensity (a.u.)
4,TCTGACCTACGTGGCACAGGCGTGCCACGTGGACGATGAGCGGAGTCACCTAGTGCAG,24000 fluorescence intensity (a.u.)
5,TTCGATCTCTCTCAAGGTCTCACCAACCAGCCGATCGAAGCGGAGTCACCTAGTGCAG,3770 fluorescence intensity (a.u.)
6,GAAGGCGGCGCGGAAGTCGGCGCCGGCGACCGGCGGCGTGCGGAGTCACCTAGTGCAG,9120 fluorescence intensity (a.u.)
7,AAATTAAACGACTTGTAATATGAGTCAGGGTATTACAATACGGAGTCACCTAGTGCAG,5500 fluorescence intensity (a.u.)
8,AATCCATTATCCATTCCTTTCCTTTCCGGTGACATGTAGTCGGAGTCACCTAGTGCAG,3270 fluorescence intensity (a.u.)
9,TACTTATCCCAAGCTGTACATGATGCTGTTACATGATGCTCGGAGTCACCTAGTGCAG,25800 fluorescence intensity (a.u.)
10,CATTGAAGAGTTGGAACTACTAGTAACCTGTGCTGTCTGTCGGAGTCACCTAGTGCAG,3200 fluorescence intensity (a.u.)
11,AGTTAGCTGTAATTACATCATGATTGTACTGTATTTACGTCGGAGTCACCTAGTGCAG,3740 fluorescence intensity (a.u.)
12,CGCCGTCCATCCCATCCACCGCCGACACGTGCTCCACTGTCGGAGTCACCTAGTGCAG,23500 fluorescence intensity (a.u.)
13,AGTTGCCCAACATGTGGCGTCTCAGGCACGGACACGTACTCGGAGTCACCTAGTGCAG,5300 fluorescence intensity (a.u.)
14,ATCACCTTAGTCATTGAAATATTTATTACTGAAACTTGTACGGAGTCACCTAGTGCAG,3390 fluorescence intensity (a.u.)
15,ACAAATGGTCAAACGTTGGTCGAAAAGTCAACGGCGTCATCGGAGTCACCTAGTGCAG,4840 fluorescence intensity (a.u.)
16,ACCAGAGCACCCAGAATTTTACAGCAGCTACTGCTGCTCACGGAGTCACCTAGTGCAG,4050 fluorescence intensity (a.u.)
17,TATACTTCCCTCTGACTGTAATAAACTTTTGGAGCATAGTCGGAGTCACCTAGTGCAG,3500 fluorescence intensity (a.u.)
18,CCTATGCCGGATGAGCTACTGGCAACGACCGAAGGAGGTGCGGAGTCACCTAGTGCAG,3970 fluorescence intensity (a.u.)
19,TGTATAGTTTGTACCTCATGCTTCAAAATTTTGATACTAACGGAGTCACCTAGTGCAG,3240 fluorescence intensity (a.u.)
20,AGTTCTCTAGCTTGTTGCTCACTCACGCATGGCGCAAGGGCGGAGTCACCTAGTGCAG,3200 fluorescence intensity (a.u.)
21,CCCCGAACCTTATTGGGCTATGTCTGGGTCATAGATGTAGCGGAGTCACCTAGTGCAG,3180 fluorescence intensity (a.u.)
22,CCATCGCGTGCTAGCTCGACCACATGATGACTTGATTCCCCGGAGTCACCTAGTGCAG,4400 fluorescence intensity (a.u.)
23,GAATGAATGTATTGATGACACGTCAAAACTTGAAACGGCGCGGAGTCACCTAGTGCAG,15000 fluorescence intensity (a.u.)

# Look-ups from above.
# Under binding signal, ACAAATGGTCAAACGTTGGTCGAAAAGTCAACGGCGTCATCGGAGTCACCTAGTGCAG has the entry 4840 fluorescence intensity (a.u.)
# Under binding signal, CCCAAATATCCACATCTAGCATATTTATTTTCTTTCCAATCGGAGTCACCTAGTGCAG has the entry 3780 fluorescence intensity (a.u.)
